The data set in a line: PAMPA gastrointestinal tract permeability. It is filed as in vitro ADME. As to conditions: 8 h, 0.5 mM. The protocol: A 10 mM solution of each compound in DMSO was prepared and subsequently homogenized in a 5 mL flask with 4.75 mL PBS (pH 6.6) (10 mM). […] 180 μL of a PBS (pH 7.4)/DMSO (95:5) solution were then added to the wells of a 96-well receiver plate, and 5 μL of a L-α-phosphatidylcholine solution (20 mg/mL in dodecane) to the wells of a 96-well donor plate. After 5 min, 180 μL of the solutions containing each compound were added to the wells of the donor plate, in triplicate, and the donor plate was carefully placed over the receiver plate in a “sandwich-like” system, which was left stirring (50 rpm) for 8 h at rt in a sealed vessel containing 10 mL PBS (pH 7.4). Afterward, the donor plate was removed, and the content of the receiver plate was transferred to a UV reading plate, which was read using a microplate reader (SpectraMax 5 – Molecular Devices). A reference sample for the internal correction of the microplate reader was prepared using 180 μL of the PBS (pH 7.4)/DMSO (95:5) solution (adapted from refs and ). The optical density values obtained from the content of the receiver plate were compared with the ones obtained from readings performed with the initial solutions containing each compound, before their addition to the donor plate. […]

Data on one molecule can be found in publication PMC12384620, “Hit-to-Lead Studies of Pyrazinylpiperazines against Visceral Leishmaniasis: Pharmacokinetic Profile and In Vivo Efficacy of Potent Compounds against Leishmania infantum” (ACS Pharmacology & Translational Science, 2025).

On to `CC(C)NCC(O)COc1ccc(CC(N)=O)cc1` (stereo not shown) [Atenolol, reference compound], for which the “GI Pe” value is 0.09 10^-6 cm/s.
